Source: paper PMC8080764
For at least one entry, the source does not settle the construct or the ends of the probe. At least one result comes from cells or an extract, where the contact may be indirect. Weaker means in comparison with the reference protein, sequence or condition of that experiment. Protein sequences can lack the tags named with them.

Target: T1, SRF WT (HA-SRF, pCGN-SRF-HA) (UniProt P11831)
T1 sequence (looked up, limits assumed): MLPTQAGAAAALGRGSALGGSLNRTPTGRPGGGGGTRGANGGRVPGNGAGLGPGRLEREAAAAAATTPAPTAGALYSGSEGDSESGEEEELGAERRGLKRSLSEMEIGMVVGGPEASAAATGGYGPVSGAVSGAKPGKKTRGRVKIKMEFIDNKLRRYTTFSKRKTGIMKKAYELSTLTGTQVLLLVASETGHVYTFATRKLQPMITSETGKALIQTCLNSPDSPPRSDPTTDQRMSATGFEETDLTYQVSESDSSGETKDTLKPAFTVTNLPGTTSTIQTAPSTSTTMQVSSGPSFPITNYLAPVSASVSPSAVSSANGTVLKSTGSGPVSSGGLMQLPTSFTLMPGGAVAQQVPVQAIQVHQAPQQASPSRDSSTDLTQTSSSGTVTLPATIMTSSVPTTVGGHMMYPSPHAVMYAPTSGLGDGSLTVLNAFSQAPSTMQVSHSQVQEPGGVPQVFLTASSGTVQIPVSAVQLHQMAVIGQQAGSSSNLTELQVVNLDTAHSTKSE
Assay: EMSA
Settings: LightShift chemiluminescent EMSA kit binding buffer (composition, salt and pH not given), 30 min at room temperature, 5% PAGE, 0.5x TBE, 100 V, 1 h, protein in an extract, protein details: HA, label: 3' biotin

Sequence	binding result (KDM2B co-transfected)	binding result
AGAACCCATAAATGGGGTGC (double strand) [Acta1 SRE far (distal SRE)]	binds more weakly	binds
GACACCCAAATATGGCTTGG (double strand) [Acta1 SRE near (proximal SRE)]	binds more weakly	binds
